For part of these data: Results from cells or extracts need not show a direct contact. Where a protein sequence is shown, tags need not be part of it. For part of these data: Construct, isoform or probe ends are uncertain for at least one entry. For part of these data: Negatives hold for the conditions tested.
Key:
[1] = target: T1, NF-AT3 Rel-homology domain (NFATC4) (Homo sapiens) (UniProt Q14934); experiment: EMSA; conditions: protein translated in vitro, label: 32P
T1 sequence: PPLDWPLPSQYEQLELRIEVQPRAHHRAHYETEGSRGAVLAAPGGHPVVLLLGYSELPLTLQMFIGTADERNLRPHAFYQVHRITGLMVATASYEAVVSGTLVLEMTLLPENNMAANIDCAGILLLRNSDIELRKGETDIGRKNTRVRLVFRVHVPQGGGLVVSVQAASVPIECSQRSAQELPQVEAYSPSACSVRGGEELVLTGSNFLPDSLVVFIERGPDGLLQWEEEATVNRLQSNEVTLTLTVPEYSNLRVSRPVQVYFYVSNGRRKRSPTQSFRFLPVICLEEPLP

[2] = target: T2, NF-AT3 endogenous (cardiac extract) (UniProt D3Z9H7); experiment: EMSA; conditions: protein in an extract; label: 32P
T2 sequence (looked up, limits assumed): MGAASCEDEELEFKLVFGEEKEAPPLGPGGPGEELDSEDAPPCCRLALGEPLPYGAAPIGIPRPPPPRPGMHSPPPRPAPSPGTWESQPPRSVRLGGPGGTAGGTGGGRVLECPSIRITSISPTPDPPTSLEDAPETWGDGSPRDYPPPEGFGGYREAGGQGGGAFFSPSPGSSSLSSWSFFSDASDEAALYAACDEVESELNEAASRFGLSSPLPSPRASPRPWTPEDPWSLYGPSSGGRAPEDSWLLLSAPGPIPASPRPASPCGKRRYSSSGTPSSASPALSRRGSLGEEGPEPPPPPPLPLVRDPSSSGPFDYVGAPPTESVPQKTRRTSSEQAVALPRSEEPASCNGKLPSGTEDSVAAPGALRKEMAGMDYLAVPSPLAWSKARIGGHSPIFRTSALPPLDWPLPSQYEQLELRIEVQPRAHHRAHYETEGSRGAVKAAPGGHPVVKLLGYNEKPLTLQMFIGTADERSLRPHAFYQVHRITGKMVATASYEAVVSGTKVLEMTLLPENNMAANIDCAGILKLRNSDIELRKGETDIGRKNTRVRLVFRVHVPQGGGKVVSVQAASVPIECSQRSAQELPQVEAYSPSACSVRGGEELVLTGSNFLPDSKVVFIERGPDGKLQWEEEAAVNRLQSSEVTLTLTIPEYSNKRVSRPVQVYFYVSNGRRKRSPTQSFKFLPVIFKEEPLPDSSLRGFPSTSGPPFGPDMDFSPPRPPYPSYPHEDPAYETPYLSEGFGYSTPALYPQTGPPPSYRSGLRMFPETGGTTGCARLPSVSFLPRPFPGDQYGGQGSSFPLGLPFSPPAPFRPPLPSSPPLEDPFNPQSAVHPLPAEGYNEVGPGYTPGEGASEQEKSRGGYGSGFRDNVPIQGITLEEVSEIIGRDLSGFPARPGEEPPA

[3] = target: T2, NF-AT3 endogenous (cardiac extract); experiment: competition with a labelled probe; conditions: unlabeled IL-2 site at 100-fold excess eliminates complexes on -927 probe; protein in an extract; label: 32P

“CTATCCTTTTGTTTTCCATCCTG (double strand) [BNP -927]”: binds ([1]; binds as avidly as IL-2 consensus site, 1 ug poly(dI-dC), 20 min room temperature); binds [2].
“GCTCCAGGATAAAAGGCCACGGT (double strand) [BNP -27]”: no binding ([1]; no binding detected, site also binds GATA4 per cited work).
“TACATTGGAAAATTTTATTACAC (double strand) [IL-2 NF-AT consensus site]”: binds ([1]; 1 ug poly(dI-dC), room temperature); binds [3].
“TCCCTGCCTTTTCCAGCAACGGT (double strand) [BNP -327]”: no binding ([1]; no binding detected).
